Measurements reported in PubChem BioAssay AID493014 (National Center for Advancing Translational Sciences (NCATS), 2011).
Out of some 340,000 compounds screened, about 170 (0.05%) were called active. The shares of active, inactive and inconclusive entries below differ from those in the screen. Calls follow the shape of the dose curve; as a rule, active = well fitted inhibition curve with a large enough effect in the signal ratio, with a control signal flat (not every such curve was filed as active); inconclusive = small, poorly fitted or top-dose-only effect, or effect the other way, or a change in a side signal; inactive = flat fitted curve, though single readings scatter; the % refers to the signal ratio. Potencies beside an inconclusive call are fits to weak or partial responses and may not hold up.

Assay: qHTS Assay to Find Inhibitors of Chronic Active B-Cell Receptor Signaling;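 as to activity change, negative = inhibition: plate controls were basal doxycycline-induced cells for no effect and cells given 10 µM MG132 for full effect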
Conditions: ABC-DLBCL IkBa-CBG/CBR reporter, luminescence ratio (green luciferase fused to IkBa over red control in TMD8 lymphoma cells), 4 h; activity change, negative = inhibition: at 46.1 µM (top of the series)
Excerpt: NIH Molecular Libraries Probe Production Network [MLPCN] NIH Chemical Genomics Center [NCGC] MLPCN Grant: 1 R03 DA031086-01A1 PI Name: Dr. R. Eric Davis NCGC Assay Overview: Diffuse large B-cell lymphoma (DLBCL) is the most common category of non-Hodgkin lymphoma, with ~20,000 new cases per year in the United States. DLBCL should be regarded as a collection of different neoplasms. Microarray gene expression analysis has defined two principal types of DLBCL, named for their similarity to normal B cell stages or activation states: a germinal center B-cell (GCB) type, and an activated B-cell (ABC) type. In ABC-DLBCL, a constitutive high-level activity of the NF-kappaB family of transcription factors has been observed (1) and NF-kappaB target genes are more highly expressed in ABC primary tumors than in GCB tumors. Functional studies have shown a constitutive high-level activity of the IkappaB (inhibitor of kappa-B) kinase (IKK) complex. […] Further analysis of DLBCL primary tumors for NF-kappaB target gene expression imply that although CARD11 is required for constitutive IKK activity in all ABC-DLBCL lines, mutations in CARD11 may be the root cause of IKK activation only in lines or tumors with such mutations. In other words, CARD11 mutations may explain NF-kappaB activation in only 10% of ABC-DLBCL cases. […] This process has been termed 'chronic active BCR signaling' (CABS). The goal of this screen is to find small-molecule inhibitors of the CABS pathway found in ABC-DLBCL lines using a cell-based assay that measures IkappaBalpa stability, which has already been extensively validated in the OCI-Ly3 line (PubChem AID:445; REF: 4). […] The assay uses green (CBG68) and red (CBR) emitting beetle luciferases [Chroma-GloTM developed by Promega Corp.] where the green luciferase is fused to IkappaBalpha and the red luciferase is present in its native state. Both luciferase genes are stably present in the TMD8 human ABC DLBCL cell line, but their expression is under the control of tetracycline-inducible promoters. Following the addition of doxycycline to induce expression of the luciferases, the green luminescence in control cultures rises only slowly because the CBG fusion partner IkappaBalpha is targeted by IKK activity for rapid degradation. In contrast, green luminescence rises rapidly in the presence of proteasome inhibitors or IKK inhibitors. The rise in red luminescence of CBR is not affected by proteasome or IKK inhibitors, and serves as normalization for cell number and nonspecific effects. Compounds were screened as a concentration-titration series that ranged from 46 uM to 3 nM.
NCGC Assay Protocol Summary: Cells were seeded in 1536-well plates at 5000 cells/4uL in IMDM medium containing 0.5% FBS, w/o phenol red, 1% penicillin/streptomycin. Then, 23 nL of compounds or DMSO were delivered to each well using a pin tool. One uL 20ng/ml doxycycline was then dispensed into white solid 1536-well plates and the plates were incubated at 37C/5% C02 in a cell incubator for 4 hrs. Then 4 uL luminescent substrate mix (in-house prepared: 150 mM Tris-Cl, pH 7.6, 3 mM MgCl2, 1% Triton X-100, 5 mM DTT, 0.2 mM CoA, 0.15 mM ATP, 5 mM D-luciferin, final concentrations) was added to each well. The plate was incubated at r.t. for 10-15 min. The plates were measured on a ViewLux plate reader for green luminescence (540/20 nm filter) and red luminescence (618/8 nm filter). The green and red luminescent signals were corrected for red and green luminescence filter overlap using previously determined filter calibration constants (determined using the procedure outlined in the Promega Technical Manual; REF 4). The %Activity was determined from the ratio of corrected green/red luminescent values. MG132 were used as control. […] Red luminescent %Activity was normalized to the difference between red luminesence in basal cells (0%Activity) and zero luminescence (-100% Activity). […]
Potency is read from the fitted curve at half-maximal effect.

| SMILES | activity change, negative = inhibition | Potency |
| --- | --- | --- |
| COc1ccc(C(=O)Nc2ccc(SC(F)F)cc2)cc1 | inconclusive: 4.27% |  |
| Cc1ccc(S(=O)(=O)NC(C(=O)Oc2ccc3c(C(F)(F)F)cc(=O)oc3c2)c2ccccc2)cc1 (centres undefined) | inactive: 8.51% |  |
| O=C(O)C(=O)/C(=C\c1cccc2ccccc12)c1ccc2ccccc2n1 | inconclusive: 26% |  |
| COc1ccc(-c2csc(Nc3ncccc3C)n2)cc1 |  | inconclusive: 29.1 µM [rising, single point] |
| Cn1c2ccc(F)cc2c2ncn(CCCN(CCO)CCO)c(=O)c21 | inconclusive: 10.7% |  |
| O=C1C(=O)N(CCN2CCOCC2)C(c2ccc(Cl)cc2)/C1=C(/O)c1ccc(S(=O)(=O)N2CCOCC2)cc1 (centres undefined) | inconclusive: 3.63% |  |
| Cc1cc(NC(=O)c2ccc(Cl)cc2)n(-c2ccccc2)n1 | inconclusive: -0.592% |  |
| Cc1nnc2sc(-c3ccc(N(C)C)cc3)nn2c1=O | inconclusive: 0.931% |  |
| CCc1ccc(NC(=O)c2cc(C)on2)cc1 | inconclusive: -28.4% |  |
| CCC(=O)NC(c1ccc(OC)c(OC)c1)c1cc(Cl)c2cccnc2c1O (centres undefined) | inactive: -2.47% |  |
| COc1ccccc1N1CCN(C(=O)C2CC=CCC2C(=O)O)CC1 (centres undefined) | inactive: -2.49% |  |
| Cc1cccc(NC(=O)C(=O)NCc2ccccn2)c1 |  | inconclusive: 35.5 µM [rising, single point] |
| COc1ccc(-n2c(SCCC#N)nnc2-c2cc(Cl)ccc2OC)cc1Cl |  | inconclusive: 11.2 µM [falling, single point] |
| O=C(Nc1ccccc1O)c1ccc(C(=O)c2ccccc2)o1 |  | inconclusive: 20 µM [falling, single point] |
| CCCCOc1ccc(C(=O)Nc2cc(C)c(OCC(=O)N3CCOCC3)c(C)c2)cc1 | inconclusive: -20.8% |  |
| c1ccc(N2CCN(Cc3ccnc4ccccc34)CC2)cc1 |  | inconclusive: 13 µM [falling, partial curve, poor fit] |
| COc1ccc(-c2nc(SCc3ccccc3)n(S(C)(=O)=O)n2)cc1 | inconclusive: 14.8% |  |
| O=C(NCc1ccco1)c1cc(Cl)nc(Cl)c1 | inconclusive: -0.328% |  |
| COc1ccc2nc(NC(=O)C3CCN(C(=O)c4ccc(F)cc4)CC3)sc2c1 | inconclusive: -3.31% |  |
| COc1ccccc1NC(=S)NCc1ccc2c(c1)cc(C)n2C | inactive: 5.01% |  |
| COc1ccc(NC(=O)CSc2nnc3ccc(-c4ccccn4)nn23)cc1 |  | inconclusive: 29.1 µM [falling, single point] |
| C[C@H]1CN([C@@H](C)CO)C(=O)Cc2cc(NC(=O)CCC(F)(F)F)ccc2O[C@H]1CN(C)S(=O)(=O)c1ccc(Cl)cc1 | inconclusive: -8.56% |  |
| Cc1cc(S(=O)(=O)Nc2ccc3c(c2)n(C)c(=O)n3C)ccc1F | inconclusive: 0.613% |  |
| COc1ccc(NC(=S)Nc2ccc3nsnc3c2)cc1 | inactive: -1.25% |  |
| COCCNC(=O)c1c(N)n(-c2cccc(C)c2)c2nc3ccccc3nc12 | inconclusive: -0.164% |  |
| COc1cccc(C(=O)NCC(=O)N2CCC(C)CC2)c1 |  | inconclusive: 20 µM [falling, partial curve] |
| O=C(COC(=O)COc1ccc(Cl)cc1Cl)NC1CCS(=O)(=O)C1 (centres undefined) | inactive: 0.993% |  |

Entries above containing two or more sulfur atoms:

| SMILES | activity change, negative = inhibition | Potency |
| --- | --- | --- |
| COc1ccc(-c2nc(SCc3ccccc3)n(S(C)(=O)=O)n2)cc1 | inconclusive: 14.8% |  |
| COc1ccc(NC(=S)Nc2ccc3nsnc3c2)cc1 | inactive: -1.25% |  |

Later entries.

| SMILES | activity change, negative = inhibition | Potency |
| --- | --- | --- |
| O=C(CSc1ncnc2ccccc12)c1ccc2c(c1)OCCO2 |  | inconclusive: 29.1 µM [falling, partial curve] |
| CC(C)(C)C1COc2ccccc2N1C(=O)c1ccccc1Cl (centres undefined) | inconclusive: 6.35% |  |
| OC1O[C@H](c2ccc3c(c2)OCO3)[C@H]2CO[C@H](c3ccc4c(c3)OCO4)[C@@H]12 (some centres undefined) | inconclusive: 1.13% |  |
| CON(c1nc(Cl)nc(N(C)C)n1)S(=O)(=O)c1ccccc1Cl | inconclusive: -9.77% |  |
| COc1ccc([N+](=O)[O-])cc1N(CC(O)Cn1nnc2ccccc21)S(=O)(=O)c1ccc(C)cc1 (centres undefined) | inconclusive: 3.96% |  |
| CCn1c(Cc2ccccc2)nnc1SCC(=O)Nc1nccs1 | inconclusive: 5.14% |  |
| COC(=O)c1ccccc1SC1CC(=O)N(c2cccc(C)c2)C1=O (centres undefined) | inconclusive: -16% |  |
| CCc1ccc(N2CC(C(=O)N/N=C/c3cc([N+](=O)[O-])ccc3O)CC2=O)cc1 (centres undefined) | inactive: 3.76% |  |
| COc1cc(C(=O)NNC2=CC(=O)CC(C)(C)C2)cc(OC)c1OC |  | inconclusive: 16.4 µM [falling, single point] |
| COc1ccc(/C=N/c2nc3ccccc3n2CCN2CCCCC2)cc1OC | inconclusive: 5.04% |  |
| CC(C)C[C@H]1CN=C(Nc2ccccc2)N1CCCC1CCCC1 |  | inconclusive: 25.1 µM [falling, single point] |
| CN(C)Cc1c(-c2ccc(Cl)cc2)nc2ccccn12 | inconclusive: 4.04% |  |
| COC(=O)COc1cc2ccccc2cc1C(=O)Nc1ccccc1 | inconclusive: 12.8% |  |
| C=CCNC(=O)NC(=O)Cn1c(=O)c2c(ncn2CC)n(Cc2ccccc2)c1=O | inconclusive: -0.375% |  |
| Cc1ccc(S(=O)(=O)c2nc(S(C)(=O)=O)sc2N2CCCCCC2)cc1 | inactive: 4.91% |  |
| Cc1nnc(NC(=O)c2ccc3ccccc3n2)s1 |  | inconclusive: 35.5 µM [cytotoxic, single point] |
| O=C(Nc1nc(-c2ccccn2)cs1)C1CCCC1 | inconclusive: -11% |  |
| O=C(COc1ccc(Cl)cc1)N1CCN(c2cccc(C(F)(F)F)c2)CC1 |  | inconclusive: 10.3 µM [rising, partial curve, poor fit] |
| CCOC(=O)C1=C(C)NC2=C(C(=O)CC(C)(C)C2)C1c1ccsc1 (centres undefined) | inconclusive: 12.2% |  |
| CC(C)c1ccc(-c2csc(NC(=O)c3cccs3)c2C(=O)O)cc1 |  | inconclusive: 20 µM [falling, single point] |
| NC(=O)c1ccccc1NC(=O)Nc1cccc2ccccc12 |  | inconclusive: 5.62 µM [falling, partial curve] |
| COc1ccccc1NS(=O)(=O)c1cc(N=N/C(C(=O)Nc2ccc(Cl)cc2)=C(/C)O)ccc1C | inactive: 2.05% |  |
| CN(C)c1ccc(/C=N/OC(=O)Nc2ccccc2)cc1 |  | inconclusive: 25.1 µM [falling, partial curve] |
| Cc1cc(C)cc(N(CC(=O)Nc2cccc(C)n2)S(=O)(=O)c2c(C)noc2C)c1 | inconclusive: 7.39% |  |
| CC1CCN(c2nc3c(c(=O)[nH]c(=O)n3C)n2Cc2ccccc2)CC1 | inconclusive: 5.55% |  |
| Clc1cccc(-c2nnc(SCc3nc4ccccc4[nH]3)n2Cc2ccco2)c1 | inconclusive: 3.66% |  |
| O=C(NC1CCCC1)c1ccc2c(c1)N(Cc1ccccc1F)C(=O)c1ccccc1S2 | inactive: -0.657% |  |

| SMILES | activity change, negative = inhibition | Potency |
| --- | --- | --- |
| COc1ccc(-c2cc(=O)n(-c3ccc([N+](=O)[O-])cc3)[nH]2)cc1 |  | inconclusive: 6.51 µM [rising, partial curve, poor fit] |
| COc1ccc(NC(=O)NCc2ccco2)c(OC)c1 |  | inconclusive: 35.5 µM [falling, single point] |
| Fc1ccc(NC(=S)N2CCCN(c3ccc(C(F)(F)F)cn3)CC2)c(F)c1 |  | inconclusive: 12.6 µM [falling, single point] |
| O=C(CCC1CCCCC1)Nc1ccccc1O |  | inconclusive: 29.1 µM [falling, single point] |
| CCc1[nH]nc(C(=O)N2CCCC(CCC(=O)N3CCN(c4ccccn4)CC3)C2)c1C (centres undefined) | inactive: -0.318% |  |
| Cc1cc(C(=O)N/N=C/C=C/c2ccccc2[N+](=O)[O-])c(C)o1 |  | inconclusive: 15.8 µM [falling, partial curve] |
| Cc1ccc(SCc2nc(-c3ccccn3)no2)cc1 |  | inconclusive: 29.1 µM [falling, single point] |
| CCCNC(=O)c1ccc(S(=O)(=O)c2ccc(OC)cc2)c([N+](=O)[O-])c1 |  | inconclusive: 35.5 µM [falling, single point] |
| Cc1cccn2c(=O)nc(SCC(=O)N3CCCCC3)nc12 | inconclusive: 17.6% |  |
| CCCc1c(C(=O)Nc2ccc(C(F)(F)F)cc2)cnn1-c1ccccc1 | inconclusive: 19% |  |
| O=C1CSCC(=O)N1Cc1ccc(Cl)c(Cl)c1 | inconclusive: 4.91% |  |
| COCCn1c(SCC(=O)Nc2ccc3[nH]c(=O)[nH]c3c2)nc2ccccc2c1=O | inconclusive: -11.8% |  |
| CC(=O)N/C(=C\c1cccc([N+](=O)[O-])c1)C(=O)NC1CCCCC1 | inconclusive: 7.05% |  |
| O=C(Nc1ccc(F)cc1F)c1ccc2c(c1)OCCO2 |  | inconclusive: 35.5 µM [rising, partial curve] |
| Cc1cc(NC(=O)CSc2nc3c(C)cccc3cc2C)no1 | inactive: 2.72% |  |
| CCc1ccc(OCC(=O)Nc2ccc(S(=O)(=O)N3CCCC3)cc2)c(Br)c1 | inconclusive: 16.1% |  |
| CCOC(=O)c1cc(-c2ccc(OC(F)F)cc2)nc2nc(SC)[nH]c(=O)c12 | inactive: 17.8% |  |
| O=C1/C(=C/c2cccs2)N=C(c2cccs2)N1Nc1ccccc1 | inconclusive: 2.15% |  |
| O=C(Nc1ccc2nc(-c3ccco3)c(-c3ccco3)nc2c1)N1CCN(c2ccccn2)CC1 | inconclusive: 15.2% |  |
| O=S(=O)(NC1CCCC1)c1ccc(S(=O)(=O)N2CCc3ccccc32)cc1 | inconclusive: -2.87% |  |
| O=C(NC(NC1CCS(=O)(=O)C1)C(=O)c1cccs1)c1ccccc1 (centres undefined) | inconclusive: 15.1% |  |
| COc1ccccc1OCC(O)CNCc1ccc2c(c1)OCO2 (centres undefined) | inactive: 0.825% |  |
| Cc1nc2ccccc2n1C1CCN(CC(=O)Nc2ccccc2Br)CC1 |  | inconclusive: 0.794 µM [falling, full curve, poor fit] |
| COc1cccc(N(CC(=O)NC(C)c2ccccc2)S(C)(=O)=O)c1 (centres undefined) | inconclusive: 8.2% |  |
| O=C(O)CCCC(=O)Nc1nc(-c2ccc(F)cc2)cs1 | inconclusive: 230% |  |
